These are yes or no findings as the source states them, for the method shown. Binding seen in cells or lysates may run through a third protein. For part of these data: Binding calls can cover weak binding; strength is not graded here.

Amino acid sequences for entries named in this document (tags omitted).
UniProt Q12834: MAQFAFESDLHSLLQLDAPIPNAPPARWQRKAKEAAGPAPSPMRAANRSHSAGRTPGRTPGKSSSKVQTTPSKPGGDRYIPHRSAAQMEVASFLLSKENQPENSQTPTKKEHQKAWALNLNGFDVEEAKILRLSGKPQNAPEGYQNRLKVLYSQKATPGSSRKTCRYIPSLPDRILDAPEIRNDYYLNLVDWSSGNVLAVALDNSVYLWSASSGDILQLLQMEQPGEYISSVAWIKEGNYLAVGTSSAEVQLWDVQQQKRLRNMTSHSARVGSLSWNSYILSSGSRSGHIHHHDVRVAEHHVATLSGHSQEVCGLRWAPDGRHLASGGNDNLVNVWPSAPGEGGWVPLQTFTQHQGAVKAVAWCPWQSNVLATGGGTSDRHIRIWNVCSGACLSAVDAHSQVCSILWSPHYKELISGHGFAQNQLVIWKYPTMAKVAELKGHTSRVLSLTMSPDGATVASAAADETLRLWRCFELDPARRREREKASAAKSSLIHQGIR

This note sets out measurements from paper PMC5520925.

Assay [1] addresses FLAG-SMAR1-D2 (mutant of the second D-box, 290-293aa) (UniProt Q8N9N5). The experiment in a line: co-IP; MCF7 cells co-transfected with HA-Cdc20 and FLAG-SMAR1 (WT, D1 or D2); in Figure 2c treated with 10 uM MG132 for 6 h; whole cell extracts immunoprecipitated with anti-FLAG (or reciprocally), immunoblot; IP buffer 50 mM Tris pH 7.4, 200 mM NaCl, 0.1% Triton X-100, 4 C. Background: Immunoblotting shows a protein as a band on a membrane.

Assay [2] addresses FLAG-SMAR1-D1 (mutant of the first D-box, 40-43aa) (UniProt Q8N9N5). Described as above.
In assay [3] the target is T1, SMAR1, endogenous (human (endogenous in MCF7)) (UniProt Q8N9N5).
T1 sequence: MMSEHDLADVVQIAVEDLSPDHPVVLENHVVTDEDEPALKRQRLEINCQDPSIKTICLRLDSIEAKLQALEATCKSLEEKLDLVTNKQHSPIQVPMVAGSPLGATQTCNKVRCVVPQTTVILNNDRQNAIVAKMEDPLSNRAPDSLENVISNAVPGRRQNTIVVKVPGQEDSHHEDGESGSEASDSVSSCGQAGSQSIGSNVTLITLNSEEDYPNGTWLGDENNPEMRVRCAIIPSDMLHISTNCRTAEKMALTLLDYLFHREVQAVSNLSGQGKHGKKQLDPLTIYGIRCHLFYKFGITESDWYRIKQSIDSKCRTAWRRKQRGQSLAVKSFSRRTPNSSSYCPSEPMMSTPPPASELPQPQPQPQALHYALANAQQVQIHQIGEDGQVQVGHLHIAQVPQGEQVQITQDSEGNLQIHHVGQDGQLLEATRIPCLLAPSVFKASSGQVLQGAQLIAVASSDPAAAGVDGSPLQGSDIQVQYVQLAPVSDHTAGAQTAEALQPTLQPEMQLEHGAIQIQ
As to the kind of experiment: co-IP; endogenous proteins; MCF7 cell extracts immunoprecipitated with SMAR1 antibody or IgG, immunoblot; un-irradiated cells; also irradiated cells with ATM inhibitor KU55933 (interaction restored); IP buffer 50 mM Tris pH 7.4, 200 mM NaCl, 0.1% Triton X-100, 4 C.

Regarding “HA-Cdc20 (cell division cycle 20 homolog) (from UniProt Q12834 1-499)”, the binding entry in assay [1] and in assay [2] was “no binding” each time.

For “JNK, endogenous (human (endogenous in MCF7)) (enzyme)”, the binding entry in assay [3] is given as “binds”.
